Results are given in words; binding and its absence hold for the method and conditions named. Some results given as binding are weak or reduced against the parent protein; the word gives no strength.
Assays:
[1] = molecular target: native human MCP-1 purified from PANC-1 cell supernatant (human) (UniProt P13500); assay: Biacore, Fab capture mode
cynomolgus monkey MCP-1 = molecular target: T1, cynomolgus monkey MCP-1 (cynomolgus monkey, UniProt P61274 24-99); assay: Biacore, Fab capture mode
T1 construct: also called cyno MCP-1; cyno CCL-2

Amino acid sequences for entries named in this document (tags omitted). Residues count along the entry.
UniProt P13500, residues 24-99: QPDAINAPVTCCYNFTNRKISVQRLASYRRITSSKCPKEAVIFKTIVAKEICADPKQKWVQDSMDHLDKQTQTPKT
UniProt P51671, residues 24-97: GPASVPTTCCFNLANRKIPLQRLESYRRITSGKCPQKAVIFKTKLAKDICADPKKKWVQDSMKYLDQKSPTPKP

human MCP-1 = human MCP-1 (human, UniProt P13500 24-99); assay: Biacore specificity, captured Fab, 100 nM chemokine
human Eotaxin = molecular target: T2, human Eotaxin (human, UniProt P51671 24-97); assay: as above
T2 construct: also called Eotaxin-1; Eotaxin 1

Measured: binding

B1: MOR03548 Fab (Fab, V domains shown)
VH: QVQLVESGGGLVQPGGSLRLSCAASGFTFRSYGMSWVRQAPGKGLEWVSNIRSDGSYTYYADSVKGRFTISRDNSKNTLYLQMNSLRAEDTAVYYCARFEFTPWTYFDFWGQGTLVTVSS
VL: DIELTQPPSVSVAPGQTARISCSGDNLGKKYVYWYQQKPGQAPVLVIYDDDNRPSGIPERFSGSNSGNTATLTISGTQAEDEADYYCQSYTAQSSASFGGGTKLTVL
notes: Parental HuCAL GOLD Fab with C-terminal FLAG and 6xHis tags
binds: [1] | cynomolgus monkey MCP-1 | human MCP-1 | human Eotaxin

Reference: patent US20090068109A1 (Janssen / Centocor, published 2009)
